In patent publication US20200123104A1, “PHARMACEUTICAL AGENT THAT BINDS THE P2X7 RECEPTOR” (Indiana University Research and Technology Corporation, priority 2017, published 2020):
At least one compound was matched to its structure with a doubt left.

Molecular target: T1, human P2X7R (HEK293-hP2X7R) (Homo sapiens, UniProt Q99572)
T1 construct: expressed in transfected cells; host or cells: HEK293
T1 sequence (Q99572 1-595): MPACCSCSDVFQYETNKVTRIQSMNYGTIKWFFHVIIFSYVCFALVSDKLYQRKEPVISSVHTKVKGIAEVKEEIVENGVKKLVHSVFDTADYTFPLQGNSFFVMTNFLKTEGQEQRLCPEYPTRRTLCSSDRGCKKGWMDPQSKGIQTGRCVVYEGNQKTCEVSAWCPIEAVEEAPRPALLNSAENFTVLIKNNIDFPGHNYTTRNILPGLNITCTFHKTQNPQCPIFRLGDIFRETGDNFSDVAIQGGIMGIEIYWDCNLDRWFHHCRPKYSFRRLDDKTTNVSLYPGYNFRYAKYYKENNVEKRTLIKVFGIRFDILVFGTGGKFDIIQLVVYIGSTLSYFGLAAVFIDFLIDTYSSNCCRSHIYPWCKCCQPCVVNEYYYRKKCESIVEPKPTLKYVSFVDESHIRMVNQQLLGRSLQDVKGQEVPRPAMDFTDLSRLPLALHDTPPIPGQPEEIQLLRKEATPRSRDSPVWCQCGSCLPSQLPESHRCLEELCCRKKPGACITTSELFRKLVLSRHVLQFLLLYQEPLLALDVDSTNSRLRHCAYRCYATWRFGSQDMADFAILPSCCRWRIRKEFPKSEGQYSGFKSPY
Assay: Saturation and kinetic radioligand binding of 11C-GSK1482160 to HEK293-hP2X7R

[11CH3]N1C(=O)CC[C@H]1C(=O)NCc1cccc(C(F)(F)F)c1Cl [[^11C]GSK1482160]
binding potential: 1.03±0.21 | receptor density (high-specific-activity radioligand): 3.0 ± 0.1 pmol/mg
